This assay concerns the target HSP70 (Solyc01g060400.1.1) (tomato (Solanum lycopersicum)) (UniProt K4AWE3). Nature of the assay: two-hybrid; Matchmaker two-hybrid system (Clontech), S. cerevisiae strain Y-187; prey in pGADT7 (activation domain), bait in pGBKT7 (GAL4 DNA binding domain); growth on triple dropout plates (-Leu -Trp -His) with 5 mM 3AT.

Results are given in words; binding and its absence hold for the method and conditions named. Binding calls can cover weak binding; strength is not graded here.

Turning to SlBAG1 (from UniProt A0A3Q7FF21), the binding entry was “binds”.

For the substance SlBAG2 (from UniProt A0A3Q7GTX5), the binding result is recorded as “binds”.

The record behind these values is paper PMC8571320.
